# Data as given in publication PMC12216690, “MORC2 is a phosphorylation-dependent DNA compaction machine” (Nature Communications, 2024).
# Residue numbers refer to the chain shown, from its start. For some of these results: A weaker result is weaker than the reference pair of the same experiment. For some of these results: Tags and fusion partners may be left off the protein sequences shown. For some of these results: The exact form of at least one protein or probe is not confirmed. For some of these results: At least one verdict was read from the data and is not stated in words by the source.
# Legend:
# MORC2 WT (Homo sapiens) = biological target: T1, MORC2 WT (Homo sapiens) (UniProt Q9Y6X9); assay: EMSA; settings: EMSA: 20 mM Tris pH 7.4, 75 mM NaCl, 5% glycerol, 0.005% NP-40, 0.5 mM MgCl2, RT 30 min, recombinant protein, residues 1-1032, protein details: C-terminal 3C site-twin StrepII
# T1 sequence (looked up): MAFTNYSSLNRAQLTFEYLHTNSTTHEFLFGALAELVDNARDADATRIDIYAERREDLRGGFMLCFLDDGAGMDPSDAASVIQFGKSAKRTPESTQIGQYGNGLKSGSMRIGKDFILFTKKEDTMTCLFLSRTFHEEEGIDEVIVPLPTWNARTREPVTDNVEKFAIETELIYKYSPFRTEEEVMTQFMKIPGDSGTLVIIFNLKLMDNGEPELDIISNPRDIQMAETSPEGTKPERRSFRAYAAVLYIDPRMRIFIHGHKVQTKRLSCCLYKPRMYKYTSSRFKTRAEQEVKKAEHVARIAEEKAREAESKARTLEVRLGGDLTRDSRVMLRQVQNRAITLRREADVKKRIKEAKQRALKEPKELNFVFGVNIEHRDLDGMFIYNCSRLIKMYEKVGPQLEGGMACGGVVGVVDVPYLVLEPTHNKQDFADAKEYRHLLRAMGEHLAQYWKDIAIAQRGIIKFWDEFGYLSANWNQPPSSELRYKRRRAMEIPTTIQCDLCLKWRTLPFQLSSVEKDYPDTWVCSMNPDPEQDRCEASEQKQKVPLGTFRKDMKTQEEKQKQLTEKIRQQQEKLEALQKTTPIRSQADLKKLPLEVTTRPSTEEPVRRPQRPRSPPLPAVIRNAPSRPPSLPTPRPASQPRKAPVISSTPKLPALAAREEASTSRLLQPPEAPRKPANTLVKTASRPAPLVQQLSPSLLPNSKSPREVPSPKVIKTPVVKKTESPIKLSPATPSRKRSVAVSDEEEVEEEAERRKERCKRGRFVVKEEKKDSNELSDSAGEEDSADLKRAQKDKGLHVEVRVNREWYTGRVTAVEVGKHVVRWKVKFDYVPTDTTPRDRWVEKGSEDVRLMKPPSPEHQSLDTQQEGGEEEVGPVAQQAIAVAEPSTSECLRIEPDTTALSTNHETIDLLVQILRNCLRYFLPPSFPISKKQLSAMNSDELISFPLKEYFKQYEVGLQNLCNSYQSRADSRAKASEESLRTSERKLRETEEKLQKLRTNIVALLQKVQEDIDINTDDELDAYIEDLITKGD
# [1] = biological target: MORC2 PD (phosphodead) S725A,S730A,S739A,S743A,S777A,S779A (Homo sapiens) (UniProt Q9Y6X9); assay: SPR; settings: SPR: 10 mM HEPES pH 7.4, 300 mM NaCl, 3 mM EDTA, 0.05% Tween-20, 20 C; recombinant protein; residues 1-1032; protein details: C-terminal 3C site-twin StrepII; label: 5'-biotin on strand 1
# [2] = biological target: T2, MORC2 S87A (Homo sapiens) (UniProt Q9Y6X9); assay: SPR; settings: similar affinity to WT; SPR: 10 mM HEPES pH 7.4, 300 mM NaCl, 3 mM EDTA, 0.05% Tween-20, 20 C; recombinant protein; residues 1-1032; protein details: C-terminal 3C site-twin StrepII; label: 5'-biotin on strand 1
# T2 sequence (looked up): T1 sequence (looked up) with S87A
# [3] = biological target: MORC2 PAK1-phosphorylated (Homo sapiens) (UniProt Q9Y6X9); assay: SPR; settings: PAK1 treated; SPR: 10 mM HEPES pH 7.4, 300 mM NaCl, 3 mM EDTA, 0.05% Tween-20, 20 C; recombinant protein; residues 1-1032; protein details: C-terminal 3C site-twin StrepII; label: 5'-biotin on strand 1
# [4] = biological target: MORC2 pre-treated (Homo sapiens) (UniProt Q9Y6X9); assay: SPR; settings: reaction buffer pre-treated; SPR: 10 mM HEPES pH 7.4, 300 mM NaCl, 3 mM EDTA, 0.05% Tween-20, 20 C; recombinant protein; residues 1-1032; protein details: C-terminal 3C site-twin StrepII; label: 5'-biotin on strand 1
# [5] = biological target: T3, MORC2 GHKL (Homo sapiens) (UniProt Q9Y6X9); assay: EMSA; settings: lacks CW and CC2; EMSA: 20 mM Tris pH 7.4, 75 mM NaCl, 5% glycerol, 0.005% NP-40, 0.5 mM MgCl2, RT 30 min; recombinant protein; residues 1-265; protein details: C-terminal 3C site-twin StrepII; label: 5' 6FAM, IRDye680 or IRDye800 on XOm1
# T3 sequence (looked up): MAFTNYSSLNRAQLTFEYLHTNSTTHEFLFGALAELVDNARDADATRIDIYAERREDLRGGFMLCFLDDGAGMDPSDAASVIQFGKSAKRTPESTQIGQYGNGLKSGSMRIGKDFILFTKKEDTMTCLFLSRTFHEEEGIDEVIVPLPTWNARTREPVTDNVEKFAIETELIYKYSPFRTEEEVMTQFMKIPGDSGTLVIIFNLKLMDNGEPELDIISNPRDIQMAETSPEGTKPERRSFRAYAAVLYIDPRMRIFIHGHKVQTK
# [6] = biological target: T4, MORC2 604-1032 (Homo sapiens) (UniProt Q9Y6X9); assay: EMSA; settings: some binding rescued; EMSA: 20 mM Tris pH 7.4, 75 mM NaCl, 5% glycerol, 0.005% NP-40, 0.5 mM MgCl2, RT 30 min; recombinant protein; residues 604-1032; protein details: C-terminal 3C site-twin StrepII; label: 5' 6FAM, IRDye680 or IRDye800 on XOm1
# T4 sequence (looked up): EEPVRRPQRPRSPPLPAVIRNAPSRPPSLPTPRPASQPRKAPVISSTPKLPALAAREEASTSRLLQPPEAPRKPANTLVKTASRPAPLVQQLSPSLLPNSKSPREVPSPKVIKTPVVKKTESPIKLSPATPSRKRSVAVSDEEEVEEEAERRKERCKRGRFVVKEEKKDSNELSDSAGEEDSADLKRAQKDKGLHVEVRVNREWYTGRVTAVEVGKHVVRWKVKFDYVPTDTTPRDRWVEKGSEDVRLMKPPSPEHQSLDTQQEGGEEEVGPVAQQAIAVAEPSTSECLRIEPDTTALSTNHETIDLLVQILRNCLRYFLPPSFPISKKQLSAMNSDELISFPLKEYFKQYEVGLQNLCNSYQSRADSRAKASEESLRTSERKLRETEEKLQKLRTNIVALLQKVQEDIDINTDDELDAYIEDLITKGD
sequence,measurement,setting,value
ATCGATGTCTCTAGACAGCTGCTCAGGATTGATCTGTAATGGCC (double strand) [44 bp dsDNA],binding result,MORC2 WT (Homo sapiens); label: IRDye700,binds
ATCGATGTCTCTAGACAGCTGCTCAGGATTGATC (double strand) [34 bp dsDNA],binding result,MORC2 WT (Homo sapiens); label: IRDye700,binds
CGGTCGTTTAGCATACTAATCTGAGAGTCCGACGGTCGTCAGTCAGTCATGACTTCACAGAGGAAGGGCCAGTATCCTGTCCAAACTTGA (double strand) [90 bp dsDNA],binding result,"MORC2 WT (Homo sapiens); label: IRDye800 (competition), IRDye700 (length series)",binds
"ACGCTGCCGAATTCTACCAGTGCCTTGCTAGGACATCTTTGCCCACCTGCAGGTTCACCC (double strand) [60 bp dsDNA (biotin, SPR)]",Kd,[1],5.35 nM
same,binding result,[2],binds
same,Kd,[3],493 nM
same,Kd,[4],160 nM
ATCGATGTCTCTAGACAGCTGCTCAGGATTGATCTGTAA (double strand) [39 bp dsDNA],binding result,MORC2 WT (Homo sapiens); label: IRDye700,binds
ACGCTGCCGAATTCTACCAGTGCCTTGCTAGGACATCTTTGCCCACCTGCAGGTTCACCC (double strand) [60 bp dsDNA (XOm1/XOm1.comp)],binding result,[5],binds more weakly
same,binding result,[6],binds more weakly
